# Some entries share one result that the patent states for a list of compounds.
# Key:
# [1] = system: mouches domestiques; assay: Lethal effect on houseflies, topical application; format: in vivo; details: female houseflies, topical application of 1µl acetone solution on dorsal thorax, mortality 24 h after treatment
# [2] = system: larves de Spodoptera littoralis; assay: Lethal effect on Spodoptera littoralis larvae, topical application; format: in vivo; details: fourth-instar larvae, topical application of acetone solution, mortality 48 h after treatment
smiles,measurement,setting,value
"C=CCC1=C(C)[C@@H](OC(=O)[C@@H]2[C@H](/C=C\C(=O)OC)C2(C)C)CC1=O [Exemple 1, (R cis ΔZ) 2,2-diméthl-3/ 3-méthoxy-oxo-1-propenyl/cyclopropane carboxylatede (1S) 2-méthyl-4-oxo 3-(2-propenyl)-2-cyclopenten-1-yle]",activité létale,[1],bonne activité létale
same,activité létale,[2],bonne activité létale
"C=CCC1=C(C)[C@@H](OC(=O)[C@@H]2[C@H](/C=C\C(=O)OCC)C2(C)C)CC1=O [Exemple 2, (1R cis, ΔZ) 2,2-diméthyl 3-(3-éthoxy-3-oxo-1-propényl) cyclopropane carboxylatede (1S) 2-méthyl-4-oxo-3-(2-propényl) 2-cyclouenten-1-yle]",activité létale,[1],bonne activité létale
same,activité létale,[2],bonne activité létale
"C=CCC1=C(C)[C@@H](OC(=O)[C@@H]2[C@H](/C=C\C(=O)OCCC)C2(C)C)CC1=O [Exemple 3, (1R cis, ΔZ) 2,2-diméthyl-3(3-oxo-3-propoxy-1-propenyl) cyclopropane carboxylatede (1S) 2-méthyl-4-exo-3-(2-propényl) 2-cyclo-penten-1-yle]",activité létale,[1],bonne activité létale
same,activité létale,[2],bonne activité létale
"C=CCC1=C(C)[C@@H](OC(=O)[C@@H]2[C@H](/C=C\C(=O)OC(C)C)C2(C)C)CC1=O [Exemple 4, (1R cis ΔZ) 2,2-dinéthyl 3-/ 3-(1-méthyléthoxy) 3-oxo-1-propényl/ cyclopropane carboxylatede (1S) 2-méthyl-4-oxo 3-(2-propényl) 2-cyclorenten-1-yle]",activité létale,[1],bonne activité létale
same,activité létale,[2],bonne activité létale
"COC(=O)/C=C\[C@H]1[C@@H](C(=O)OC(C#N)c2cccc(Oc3ccccc3)n2)C1(C)C (stereo partly drawn) [Exemple 5, (1R cis, ΔZ) 2,2-diméthyl 3-(3-méthoxy-3-oxo-1-propenyl) cyclopropane carboxylatede (RS) cyano (6-phénoxy-2-pyridinyl) méthyle]",activité létale,[1],bonne activité létale
same,activité létale,[2],bonne activité létale
"COC(=O)/C=C\[C@H]1[C@@H](C(=O)OCN2C(=O)C3=C(CCCC3)C2=O)C1(C)C [Exemple 6, (1R cis, ΔZ) 2,2-diméthyle 3/ -méthoxy 3-oxo-1-propenyl/ cyclopropane carboxylatede (1,3,4,5,6,7-hexahydro 1,3-dioxo-2H-iscindol-2-yl) méthyle]",activité létale,[1],bonne activité létale
same,activité létale,[2],bonne activité létale
"COC(=O)/C=C\[C@H]1[C@@H](C(=O)OCc2coc(Cc3ccccc3)c2)C1(C)C [Exemple 7, (1R cis, ΔZ) 2,2-diméthyl-3 (3-méthoxy-3-oxo-1-propenyl) cyclopropane carboxylatede 5-(phénylméthyl)-3-furanyl/ méthyle]",activité létale,[1],bonne activité létale
same,activité létale,[2],bonne activité létale
"C#CCN1CC(=O)N(COC(=O)[C@@H]2[C@H](/C=C\C(=O)OCCC)C2(C)C)C1=O [Exemple 8, (1R. cis, ΔZ) 2,2-diméthyl 3-(3-propoxy-3-oxo-1-propenyl) cyclopropane carboxylatede /1-(2-propenyl)2,4-dioxo imidazolidin-3-yl/ méthyle]",activité létale,[1],bonne activité létale
same,activité létale,[2],bonne activité létale
